{"source": "PubChem BioAssay AID504834", "about": "(National Center for Advancing Translational Sciences (NCATS), 2011)", "note": "“And” between values parts separate entries of the source, which are not always exact repeats. Identical values can stand only once. Out of some 320,000 compounds screened, about 22,000 (6.9%) were called active. Inconclusive means that the source gave no clear call. Such entries were picked first, then a sample of the others. Calls follow the shape of the dose curve; as a rule, active = well fitted inhibition curve with a large enough effect; inconclusive = small, poorly fitted or top-dose-only effect, or another doubt; inactive = no such curve, though single readings can be large or run the other way. Potencies of inconclusive entries are doubtful fits and often do not repeat. Potency is read from the fitted curve at half-maximal effect."}
{"assay": "Primary qHTS for delayed death inhibitors of the malarial parasite plastid, 96 hour incubation", "details": "P. falciparum luciferase reporter growth; series mostly up to 28.7 µM", "procedure,_shortened": "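P. falciparum expressing integrated firefly luciferase grown in erythrocytes (2% hematocrit, 0.05% parasitemia final) with compounds for 96 hours at 37 C, 5% CO2. Growth inhibition read as loss of luminescence after adding luciferase detection reagent.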"}
{"smiles": "Cn1nnnc1SCCNCc1ccccc1OCc1ccccc1", "Potency": "inconclusive: 11.7 µM [inhibitor, single point]"}
{"smiles": "CC(=O)Nc1ccc(NC(=O)CSc2ccc(-c3cccnc3)nn2)cc1", "Potency": "inconclusive: 6.57 µM [inhibitor, partial curve]"}
{"smiles": "CCCOc1cccc(C(=O)Nc2nnn(CCC)n2)c1", "Potency": "active: 4.65 µM"}
{"smiles": "Cc1cc(S(=O)(=O)NCCCN2CCOCC2)ccc1F", "Potency": "inconclusive: 11.7 µM [inhibitor, partial curve]"}
{"smiles": "O=C(Cc1ccccc1)Nc1ccc(C(=O)NCc2ccccc2)cc1", "Potency": "inconclusive: 11.7 µM [inhibitor, single point]"}
{"smiles": "Cc1ccc2nc3cc([N+](=O)[O-])cc([N+](=O)[O-])c3cc2c1", "Potency": "inconclusive: 18.5 µM [inhibitor, single point]"}
{"smiles": "COc1cccc(C(=O)N2CCCC(Nc3ccc(C)c(C)c3)C2)c1", "note": "(stereo not drawn)", "Potency": "inconclusive: 0.294 µM [inhibitor, full curve]"}
{"smiles": "CC1CN(c2nc(Nc3ccccc3F)nc(N)c2[N+](=O)[O-])CC(C)O1", "note": "(stereo not drawn)", "Potency": "inconclusive: 0.294 µM [inhibitor, full curve, poor fit]"}
{"smiles": "COc1cc(C(=O)NCc2ccc(OCCN(C)C)cc2)cc(OC)c1OC", "Potency": "inconclusive: 3.61 µM [inhibitor, partial curve] and inconclusive: 14.7 µM [inhibitor, single point]"}
{"smiles": "O=S(=O)(Cc1ccccc1)N1CCN(Cc2ccc(F)cc2Cl)CC1", "Potency": "inactive"}
{"smiles": "O=C(NNC(=O)C1CCN(S(=O)(=O)c2ccc(Cl)cc2)CC1)c1ccccc1O", "Potency": "inactive"}
{"smiles": "COc1ccccc1N1CCN(C(=O)c2ccc(N3CCCCS3(=O)=O)cc2)CC1", "Potency": "inactive"}
{"smiles": "Cc1cc2c(cc1S(=O)(=O)N(C)Cc1ccccc1)n(C)c(=O)c(=O)n2C", "Potency": "inactive"}
{"smiles": "CC(=O)c1ccc(S(=O)(=O)Nc2cccc(S(=O)(=O)NC3=NCCC3)c2)cc1", "Potency": "inactive"}
{"smiles": "Cc1ccc(C(CC(=O)O)Nc2nc(N3CCOCC3)nc(N3CCOCC3)n2)cc1", "note": "(stereo not drawn)", "Potency": "inconclusive: 1.47 µM [inhibitor, partial curve, poor fit]"}
{"smiles": "C/C=C\\C(=O)Nc1cccc(C2=NOC3(C2)C[C@@H](C(N)=O)N(C(=O)COc2ccc(Cl)cc2)C3)c1", "note": "(stereo partly drawn)", "Potency": "inconclusive: 18.5 µM [inhibitor, single point]"}
{"smiles": "O=C1/C(=N\\O)Cc2ccccc21", "Potency": "inconclusive: 1.17 µM [inhibitor, partial curve, poor fit]"}
{"smiles": "CCCn1c(SCC(=O)Nc2ccccc2Cl)n[nH]c1=O", "Potency": "inconclusive: 10.4 µM [inhibitor, single point]"}
